The nature of the assay: qHTS Assay for Lipid Storage Modulators in Drosophila S3 Cells.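 On cell number change: cells counted by Cell Tracker Red CMTPX staining in the red channel.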 Conditions: BODIPY lipid droplet fluorescence, 18-24 h; for cell number change: measured here: cell count max response, cells fed with added oleic acid. The method, boiled down: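 Drosophila S3 cells loaded with oleic acid (400 uM, as added) and compounds at several concentrations; lipid droplets imaged by 488-nm laser-scanning cytometry, 500–530 nm intensity and object ratio to cell channel. Percent activity normalized to 20 uM Triacsin C.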
In general terms: qHTS replaces the single test concentration by a dilution series.

Where [1] appears, read: measured here: lipid fluorescence (Fed channel) AC50, cells fed with added oleic acid.
Where [2] appears, read: measured here: cell number channel AC50, cells fed with added oleic acid.

The list shows a part of the results. These are further read-outs of the screen, such as a control signal, another cell line or another target. No call is given for them. Most of these compounds were active or inconclusive in the main read-out, so they are no random draw. Potencies come from curve fits of mixed quality, noted in brackets.

The AC50 is the midpoint of the concentration-response curve, whichever way the signal moves. As for `COC(=O)C1=C(c2c(C)noc2C)C[C@@H]2CC[C@H]1N2C(=O)N1CCC(C)CC1`, the cell number change was -3.39%. Moreover, under setting [1], the AC50 was 116 nM [rising, partial curve, poor fit].

Regarding `CC(C)CN1CCN(Cc2cccc3c2OCO3)CC1CCO` (stereo not given), the cell number change is 16.6%. Besides, under setting [1], the AC50 was 9200 nM [rising, partial curve, poor fit].

Consider `O=C(N/N=C/c1c(O)n(Cc2ccco2)c(=O)[nH]c1=O)c1ccccc1O`, for which the cell number change was -38.9%. Under setting [2], the AC50 is 10300 nM [falling, partial curve, poor fit]. Also, the AC50 under setting [1] is 8200 nM [falling, partial curve].

`Cc1ccc(NC2=NCCCS2)c(C)c1C`: the cell number change is 2.67%. Besides, under setting [2], the AC50 was 820 nM [falling, full curve].

Regarding `CC(=O)c1cc(C#N)c(N2CCN(C)CC2)nc1C`, the AC50 under setting [1] is 580 nM [rising, single point].

For `CN1CCN(c2ccc([N+](=O)[O-])c3no[n+]([O-])c23)CC1`, the cell number change was -42.3%. In addition, the concentration at half-maximal activity (AC50) under setting [2] was 10300 nM [falling, partial curve]. For the same compound, under setting [1], the concentration at half-maximal activity (AC50) is 5800 nM [falling, full curve, poor fit].

On to `CC1CN=C(NC(C)c2ccccc2)S1` (stereo not given), for which the cell number change was 1.59%. Further, under setting [2], the AC50 is 2060 nM [falling, single point]. Further, the AC50 under setting [1] is 2590 nM [falling, single point].

Take `COC(=O)C1=C(c2ccc(OC(F)(F)F)cc2)C[C@@H]2CC[C@H]1N2C(=O)NCCc1ccccc1`: the cell number change was -21.9%. The AC50 under setting [1] is 651 nM [rising, partial curve, poor fit].

Turning to `O=C(Cc1ccccc1)OCCN1CCCCC1`, the cell number change is -3.72%. The AC50 under setting [1] is 116 nM [falling, full curve, poor fit].

Regarding `CCN(CC)C(=O)c1ccc(NC(=O)c2cccc(S(=O)(=O)N3CCN(Cc4ccccc4)CC3)c2)cc1`, the cell number change came to 3.02%. Also, the AC50 under setting [1] is 29100 nM [rising, single point].

`Cc1c(C(=O)O)cccc1-n1c(C)cc(/C=C2\C(=O)NC(=O)N(c3ccc4c(c3)OCO4)C2=O)c1C`: the cell number change is -30.8%. In addition, the AC50 under setting [2] is 32600 nM [falling, single point].

Consider `C#C[C@]1(O)CC[C@H]2[C@@H]3CCC4=Cc5nc6nc7ccccc7n6cc5C[C@]4(C)[C@H]3CC[C@@]21C`, for which the cell number change worked out at 4.02%. Also, the AC50 under setting [2] was 517 nM [rising, full curve, poor fit]. In addition, the AC50 under setting [1] was 517 nM [rising, full curve].

`CCOP(=O)(OCC)c1nc(-c2cccc3ccccc23)oc1N1CCCCC1`: the AC50 under setting [2] was 29100 nM [falling, single point].

Take `OC(CNC1CCCCCCC1)c1ccccc1` (stereo not given): the cell number change came to 19.7%. Further, under setting [2], the AC50 is 2590 nM [rising, single point]. Besides, the AC50 under setting [1] was 4610 nM [rising, single point].

Take `Fc1ccc(N2CCN(Cc3cc4c(cc3Br)OCO4)CC2)cc1`: the cell number change was 7.09%.

For `O=c1[nH]c(=O)n(C2CCCCCC2)c(O)c1C=NCCCN1CCOCC1`, the cell number change is -13.6%. For the same compound, the AC50 under setting [2] is 1030 nM [rising, partial curve, poor fit]. In addition, the AC50 under setting [1] is 29100 nM [rising, single point].

As to `O=P(O)(O)C#Cc1ccccc1`, the cell number change was -16.1%. In addition, the AC50 under setting [1] is 29100 nM [falling, single point].

Turning to `CCC(C)/C=C(C)/C=C/C1=CC2=C(Cl)C(=O)C(C)(OC(C)=O)C(=O)C2=CO1` (stereo not given), the cell number change was -36.8%. The AC50 under setting [2] is 23100 nM [falling, partial curve, poor fit]. In addition, the half-maximal activity concentration (AC50) under setting [1] is 1840 nM [falling, partial curve].

As to `CP(C)(=O)CCC(=O)O`, the cell number change was -60.3%. Moreover, the AC50 under setting [2] was 29100 nM [falling, single point]. Also, the AC50 under setting [1] was 29100 nM [falling, single point].

As for `CC(C)(C)c1ccc(C(=O)C2CCCN(C3CCC3)C2)cc1` (stereo not given), the cell number change is 4.06%. The AC50 under setting [2] was 2060 nM [falling, partial curve]. Besides, the AC50 under setting [1] is 146 nM [falling, full curve, poor fit].

With `CCC(=NCc1ccc(F)cc1)c1c(O)n(C)c(=O)n(C)c1=O`, the cell number change is -25.8%.

Regarding `COCCNC(=O)Cn1cc(/C=C2\C(=O)NC(=O)N(c3ccccc3F)C2=O)c2ccccc21`, the cell number change worked out at 65.3%. The AC50 under setting [2] was 9200 nM [rising, partial curve].

`COc1ccc(OCC(=O)N2CCN(Cc3nc4cc([N+](=O)[O-])ccc4n3C)CC2)cc1`: the cell number change stood at 41.3%. Moreover, the AC50 under setting [2] is 9200 nM [rising, partial curve]. Under setting [1], the AC50 was 731 nM [rising, single point].

Consider `Cc1cc(OCC(=O)Nc2c(C)n(C)n(-c3ccccc3)c2=O)c2c3c(c(=O)oc2c1)CCC3`, for which the cell number change came out at 15.8%. For the same compound, the AC50 under setting [2] was 231 nM [rising, full curve]. In addition, the AC50 under setting [1] was 291 nM [rising, full curve].

`C1CNC2NCCNC2N1` (stereo not given): the cell number change is -0.799%.

Consider `CC(C)CN1CCN(Cc2ccc(C(F)(F)F)cc2)CC1CCO` (stereo not given), for which the cell number change came to 33.2%. In addition, the AC50 under setting [2] was 29100 nM [rising, single point].

For `Cc1cc(NC(=O)CCl)nn1C`, the cell number change is -24.2%. The AC50 under setting [1] was 20600 nM [falling, single point].

With `CC1CC2(O)c3no[n+]([O-])c3CCC2N1O` (stereo not given), the cell number change was determined as 0.703%. In addition, under setting [1], the AC50 is 29100 nM [falling, single point].

Turning to `Cn1cc(CCC(=O)N2CCC3(CC2)OCCO3)c2ccccc21`, the cell number change was -8.6%. In addition, under setting [2], the AC50 is 731 nM [falling, full curve, poor fit]. Further, the AC50 under setting [1] was 1460 nM [falling, partial curve, poor fit].

Consider `Cc1ccc(-n2c(O)c(/C=N/Nc3ccccc3)c(=O)[nH]c2=O)cc1C`, for which the cell number change is 4.1%. The AC50 under setting [2] was 580 nM [falling, full curve].

Turning to `CCOC(=O)C1=C(NC(=S)NC(=O)c2ccccc2)c2ccccc2CC12CCCC2`, the cell number change was -8.82%. For the same compound, under setting [2], the AC50 was 231 nM [falling, full curve]. Also, the AC50 under setting [1] was 291 nM [falling, partial curve].

For `CC1(C)OC1COc1c2occc2cc2ccc(=O)oc12` (stereo not given), the cell number change was found to be 18.7%. In addition, the AC50 under setting [1] is 326 nM [rising, full curve].

Turning to `Cc1cccc(-n2c(O)c(C=Nc3ccc(S(N)(=O)=O)cc3)c(=O)[nH]c2=O)c1`, under setting [1], the AC50 was 16400 nM [falling, partial curve, poor fit].

Consider `CC(C)(C#CCCCCC#CC(C)(C)[N+](C)(C)C)[N+](C)(C)C`, for which the cell number change is -10.5%. Further, the AC50 under setting [1] was 32600 nM [falling, single point].

Values taken from PubChem BioAssay AID2685 (National Center for Advancing Translational Sciences (NCATS), 2010).
